From patent publication US20220098314A1
Results are given in words; binding and its absence hold for the method and conditions named. Some results given as binding are weak or reduced against the parent protein; the word gives no strength.

Protein sequences, listed by entry. Tags and fused reporters are not part of them. Residues count along the entry.
UniProt Q9Y5U5, residues 26-241: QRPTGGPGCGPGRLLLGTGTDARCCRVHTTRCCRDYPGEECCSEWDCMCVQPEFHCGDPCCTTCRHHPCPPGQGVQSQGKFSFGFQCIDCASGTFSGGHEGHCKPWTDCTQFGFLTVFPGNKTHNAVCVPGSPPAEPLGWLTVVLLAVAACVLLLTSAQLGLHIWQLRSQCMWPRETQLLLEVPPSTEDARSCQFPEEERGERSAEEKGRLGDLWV

B1: anti-GITR E1-3H7 IgG4 (antibody, V domains shown)
VH: QVQLVQSGGGLVQPGGSLRLSCAASGFTFSSHAMSWVRQAPGKGLEWVSAISGSGGSTYYADSVKGRFTISRDNSKNTLYLQMNSLRAEDTAVYYCAKIGTADAFDIWGQGTTVTVSS
VL: QSALTQPPSVSGTPGQRVTISCSGGVPNIGSNPVNWYLHRPGTAPKLLIYNSNQWPSGVPDRFSGSRSGTSASLAISGLQSEDEADYYCAAWDDSLDGLVFGGGTKLTVL
B2: anti-GITR TT1-3C6 IgG4 (antibody, V domains shown)
VH: EVQLVQSGGGLVQPGGSLRLSCAASGFTFSSYAMSWVRQAPGKGLEWVSAISGSGGSTYYADSVKGRFTISRDNSKNTLYLQMNSLRADDTAVYYCARRGFMDVWGKGTLVTVSS
VL: SSELTQDPAVSVALGQTVTITCQGDILEAYYASWYQQRPGQAPVLVIYGENNRPSGIPDRFSGSRSGNTASLTITGAQAEDEADYYCNSRDSSGSHVVFGGGTKMTVL

Molecular target: GITR expressed on cells (GITR(+) CHO cells; NF-kB-luc2P/GITR Jurkat cells) (UniProt Q9Y5U5)
Test: flow cytometry competition with a constant concentration of GITR ligand

Binder	binding
B1	binds
B2	binds
